The text below walks through data of PubChem BioAssay AID488856 (Sanford-Burnham Center for Chemical Genomics, 2010).

The chains behind the UniProt entries cited, without tags or fusion partners. Where a name states a change or a piece, a line headed by the entry shows the natural chain unless it says otherwise.
UniProt P42574: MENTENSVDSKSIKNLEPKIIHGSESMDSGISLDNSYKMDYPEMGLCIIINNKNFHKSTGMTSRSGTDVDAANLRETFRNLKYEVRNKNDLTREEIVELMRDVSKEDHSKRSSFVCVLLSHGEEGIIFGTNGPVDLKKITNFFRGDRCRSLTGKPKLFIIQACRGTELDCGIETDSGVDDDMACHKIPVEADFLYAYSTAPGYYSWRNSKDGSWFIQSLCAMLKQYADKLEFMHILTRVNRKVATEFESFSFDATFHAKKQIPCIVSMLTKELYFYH

About 50 (4%) of roughly 1,400 compounds were called active.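 Rule for the calls: active = mean inhibition across replicates above about 26% (limit read from the data); inactive = the rest.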 The list shows a part of the results, in another mix than the full data.

One may read the inhibition as the drop in the measured response relative to a control, in per cent.

This test concerns the target Caspase-3 (Homo sapiens) (UniProt P42574). The experiment in a line: CASP3 blockers, validation, counterassay for UBE2N polyubiquitination inhibitor project, biochemical, one-dose (AID 488856).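 Note: plate controls were DMSO with caspase-3 for no effect and DMSO wells lacking enzyme for full effect.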 As to conditions: Recombinant caspase-3, Caspase-Glo 3/7 luminescence, 60 min; at 20 µM; hits give high values.
For the molecule `CNCC(O)c1cc(F)c(OCc2ccccc2)c(OCc2ccccc2)c1F` (stereo unspecified), the inhibition was inactive: -2.3%.
